Measured values as given in publication PMC4964570.
These are yes or no findings as the source states them, for the method shown. In cells and extracts the contact can be indirect. Some results given as binding are weak or reduced against the parent protein; the word gives no strength.

The chains behind the UniProt entries cited, without tags or fusion partners.
UniProt Q8K371: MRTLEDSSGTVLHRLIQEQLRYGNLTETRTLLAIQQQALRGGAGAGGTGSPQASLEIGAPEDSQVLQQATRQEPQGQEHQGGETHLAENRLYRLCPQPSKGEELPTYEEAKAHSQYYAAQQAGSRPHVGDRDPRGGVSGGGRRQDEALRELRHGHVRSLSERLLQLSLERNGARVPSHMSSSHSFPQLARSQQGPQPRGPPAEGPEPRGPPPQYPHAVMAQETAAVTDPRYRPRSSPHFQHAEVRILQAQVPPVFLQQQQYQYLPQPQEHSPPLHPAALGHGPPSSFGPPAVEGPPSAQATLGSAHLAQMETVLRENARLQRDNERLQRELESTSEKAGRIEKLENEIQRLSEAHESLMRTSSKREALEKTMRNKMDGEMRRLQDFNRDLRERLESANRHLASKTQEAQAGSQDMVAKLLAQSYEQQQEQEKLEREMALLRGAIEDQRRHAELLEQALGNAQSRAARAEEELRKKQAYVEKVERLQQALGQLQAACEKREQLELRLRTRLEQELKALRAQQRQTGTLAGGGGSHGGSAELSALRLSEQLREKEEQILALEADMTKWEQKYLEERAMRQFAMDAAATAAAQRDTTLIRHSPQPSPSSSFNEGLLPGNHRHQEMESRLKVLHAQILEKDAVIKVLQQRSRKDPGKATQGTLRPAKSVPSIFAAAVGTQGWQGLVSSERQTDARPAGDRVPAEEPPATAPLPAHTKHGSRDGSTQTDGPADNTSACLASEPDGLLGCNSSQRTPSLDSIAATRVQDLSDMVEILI

Tests used:
[1] = biological target: AmotL2, endogenous in MS-1 mouse endothelial cells (mouse (endogenous in MS-1)) (UniProt Q8K371); assay: co-IP; MS-1 cell lysate (50 mM Tris-HCl pH 7.6, 150 mM NaCl, 1 mM EDTA, 1% Nonidet P40); immunoprecipitation with antibodies against Amot, AmotL1 and AmotL2, protein G sepharose, 4 °C; western blot
[2] = biological target: T1, Angiomotin (Amot), endogenous in MS-1 mouse endothelial cells (mouse (endogenous in MS-1)) (UniProt Q8VHG2); assay: as above
T1 sequence: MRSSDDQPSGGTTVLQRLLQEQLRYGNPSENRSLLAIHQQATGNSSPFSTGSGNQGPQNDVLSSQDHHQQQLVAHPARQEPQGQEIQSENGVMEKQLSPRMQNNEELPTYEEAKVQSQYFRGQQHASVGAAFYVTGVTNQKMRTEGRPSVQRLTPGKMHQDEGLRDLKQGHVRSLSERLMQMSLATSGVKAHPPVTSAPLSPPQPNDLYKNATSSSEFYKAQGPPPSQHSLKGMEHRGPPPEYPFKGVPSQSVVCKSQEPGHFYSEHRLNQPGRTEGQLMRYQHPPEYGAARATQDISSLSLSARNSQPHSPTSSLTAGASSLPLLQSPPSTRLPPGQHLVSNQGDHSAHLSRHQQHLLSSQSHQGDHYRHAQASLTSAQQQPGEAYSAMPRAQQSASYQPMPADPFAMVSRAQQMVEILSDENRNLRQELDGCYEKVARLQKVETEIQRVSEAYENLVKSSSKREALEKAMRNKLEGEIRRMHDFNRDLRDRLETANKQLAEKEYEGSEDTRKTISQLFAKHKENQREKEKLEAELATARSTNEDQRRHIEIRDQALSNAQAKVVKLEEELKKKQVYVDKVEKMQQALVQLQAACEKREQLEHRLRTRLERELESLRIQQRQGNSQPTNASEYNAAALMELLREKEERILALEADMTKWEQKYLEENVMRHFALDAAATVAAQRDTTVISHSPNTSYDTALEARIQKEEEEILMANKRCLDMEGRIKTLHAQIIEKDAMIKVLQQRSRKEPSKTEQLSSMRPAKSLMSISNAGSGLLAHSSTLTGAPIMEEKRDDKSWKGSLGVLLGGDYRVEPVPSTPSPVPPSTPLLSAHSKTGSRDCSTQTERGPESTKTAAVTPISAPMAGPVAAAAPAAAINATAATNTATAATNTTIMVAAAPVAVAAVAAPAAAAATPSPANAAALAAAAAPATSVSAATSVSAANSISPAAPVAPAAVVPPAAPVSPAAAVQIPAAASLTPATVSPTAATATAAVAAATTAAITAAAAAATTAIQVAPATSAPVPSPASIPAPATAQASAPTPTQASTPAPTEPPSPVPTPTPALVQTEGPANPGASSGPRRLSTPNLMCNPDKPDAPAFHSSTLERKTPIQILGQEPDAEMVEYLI

- binding [1]: binds
- binding [2]: binds weakly
B1: VE-cadherin, endogenous in MS-1 mouse endothelial cells (protein, UniProt P55284 46-784)
chain: DWIWNQMHIDEEKNESLPHYVGKIKSNVNRQNAKYVLQGEFAGKIFGVDANTGNVLAYERLDREKVSEYFLTALIVDKNTNKNLEQPSSFTVKVHDINDNWPVFSHQVFNASVPEMSAIGTSVIRVTAVDADDPTVAGHATVLYQIVKGNEYFSIDNSGLIFTKIKNLDREKQAEYKIVVETQDALGLRGESGTATVMIRLEDINDNFPVFTQSTYTFSVPEDIRVGKPLGFLTVVDPDEPQNRMTKYSIMQGEYRDTFTIETDPKRNEGIIKPTKSLDYEVIQQYTFYIEATDPTIRYEYLSSTSGKNKAMVTINVLDVDEPPVFQRHFYHFKLPENQKKPLIGTVVAKDPDKAQRSIGYSIRKTSDRGQFFRITKQGNIYNEKELDRETYAWYNLTVEANELDSRGNPVGKESIVQVYIEVLDENDNPPEFAQPYEPKVCENAAQGKLVVQISATDKDVVPVNPKFKFALKNEDSNFTLINNHDNTANITVKYGQFNREHAKFHYLPVLISDNGVPSLTGTSTLTVGVCKCNEQGEFTFCEEMAAQAGVSIQALVAIFLCILTITVITLLIILRRRIRKQAHAHSKSALEIHEQLVTYDEEGGGEMDTTSYDVSVLNSVRGGSTKPLRSTMDARPAVYTQVQKPPRLAPGLHGGPREMATMIDVKKEEADNDGGGPPYDTLHIYGYEGAESIAESLSSLSTNSSDSDIDYDFLNDWGPRFKMLAELYGSDPQEELII
